# According to the supplement of paper PMC8728848:
# The list shows a part of the results.
# Key:
# Assay in all cases: glycan array binding signal (z-score within array); higher = stronger binding
# Settings in all cases: glycan notation: IUPAC condensed, linker removed
# Fuc(a1-2)Gal = molecular target: Fuc(a1-2)Gal
# Outline: (§1)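 Glycan array data were curated from 3228 arrays in the Consortium for Functional Glycomics database and kept only where the protein sequence was available. Glycan names were converted to IUPAC-condensed notation, and columns mapping to the same glycan were averaged. The binding signal is a within-array Z-score, averaged across arrays of the same protein sequence at different concentrations or buffers and across linkers. Negative Z-scores can be read as non-binding.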
# Fuc(a1-2)Gal(b1-3)GalNAc = molecular target: Fuc(a1-2)Gal(b1-3)GalNAc
# Outline: as §1
# [1] = molecular target: Fuc(a1-2)Gal(b1-3)GalNAc(a1-3)[Fuc(a1-2)]Gal(b1-4)Glc
# Outline: as §1
# [2] = molecular target: Fuc(a1-2)Gal(b1-3)GalNAc(a1-3)[Fuc(a1-2)]Gal(b1-4)GlcNAc
# Outline: as §1
# [3] = molecular target: Fuc(a1-2)Gal(b1-3)GalNAc(b1-3)Gal
# Outline: as §1
# [4] = molecular target: Fuc(a1-2)Gal(b1-3)GalNAc(b1-3)Gal(a1-4)Gal(b1-4)Glc
# Outline: as §1
# [5] = molecular target: Fuc(a1-2)Gal(b1-3)GalNAc(b1-4)[Neu5Ac(a2-3)]Gal(b1-4)Glc
# Outline: as §1
# Fuc(a1-2)Gal(b1-3)GlcNAc = molecular target: Fuc(a1-2)Gal(b1-3)GlcNAc
# Outline: as §1
# [6] = molecular target: Fuc(a1-2)Gal(b1-3)GlcNAc(b1-2)Man(a1-3)[Fuc(a1-2)Gal(b1-3)GlcNAc(b1-2)Man(a1-6)]Man(b1-4)GlcNAc(b1-4)GlcNAc
# Outline: as §1
# [7] = molecular target: Fuc(a1-2)Gal(b1-3)GlcNAc(b1-2)Man(a1-3)[Fuc(a1-2)Gal(b1-3)GlcNAc(b1-2)Man(a1-6)]Man(b1-4)GlcNAc(b1-4)[Fuc(a1-6)]GlcNAc
# Outline: as §1
# [8] = molecular target: Fuc(a1-2)Gal(b1-3)GlcNAc(b1-3)Gal(b1-4)Glc
# Outline: as §1
# [9] = molecular target: Fuc(a1-2)Gal(b1-3)GlcNAc(b1-3)GalNAc
# Outline: as §1
# [10] = molecular target: Fuc(a1-2)Gal(b1-3)GlcNAc(b1-3)[Fuc(a1-2)Gal(b1-3)GlcNAc(b1-6)]GalNAc
# Outline: as §1
# [11] = molecular target: Fuc(a1-2)Gal(b1-3)GlcNAc(b1-3)[Gal(b1-4)GlcNAc(b1-6)]Gal(b1-4)Glc
# Outline: as §1
# [12] = molecular target: Fuc(a1-2)Gal(b1-3)GlcNAc(b1-3)[Neu5Ac(a2-6)Gal(b1-4)GlcNAc(b1-6)]Gal(b1-4)Glc
# Outline: as §1
# [13] = molecular target: Fuc(a1-2)Gal(b1-3)GlcNAc6S
# Outline: as §1
# [14] = molecular target: Fuc(a1-2)Gal(b1-3)[Fuc(a1-4)]GlcNAc
# Outline: as §1
# [15] = molecular target: Fuc(a1-2)Gal(b1-3)[Fuc(a1-4)]GlcNAc(b1-2)Man(a1-3)[Fuc(a1-2)Gal(b1-3)[Fuc(a1-4)]GlcNAc(b1-2)Man(a1-3)]Man(b1-4)GlcNAc(b1-4)GlcNAc
# Outline: as §1
# [16] = molecular target: Fuc(a1-2)Gal(b1-3)[Fuc(a1-4)]GlcNAc(b1-2)Man(a1-3)[Fuc(a1-2)Gal(b1-3)[Fuc(a1-4)]GlcNAc(b1-2)Man(a1-6)]Man(b1-4)GlcNAc(b1-4)[Fuc(a1-6)]GlcNAc(b1-4)[Fuc(a1-6)]GlcNAc
# Outline: as §1
# [17] = molecular target: Fuc(a1-2)Gal(b1-3)[Fuc(a1-4)]GlcNAc(b1-3)[Fuc(a1-3)[Gal(b1-4)]GlcNAc(b1-6)]Gal(b1-4)Glc
# Outline: as §1
# [18] = molecular target: Fuc(a1-2)Gal(b1-3)[Fuc(a1-4)]GlcNAc(b1-3)[Gal(b1-4)GlcNAc(b1-6)]Gal(b1-4)Glc
# Outline: as §1
# Fuc(a1-2)Gal(b1-4)Glc = molecular target: Fuc(a1-2)Gal(b1-4)Glc
# Outline: as §1
# Fuc(a1-2)Gal(b1-4)Glc6S = molecular target: Fuc(a1-2)Gal(b1-4)Glc6S
# Outline: as §1
# Fuc(a1-2)Gal(b1-4)GlcNAc = molecular target: Fuc(a1-2)Gal(b1-4)GlcNAc
# Outline: as §1
# [19] = molecular target: Fuc(a1-2)Gal(b1-4)GlcNAc(b1-2)Man
# Outline: as §1
# [20] = molecular target: Fuc(a1-2)Gal(b1-4)GlcNAc(b1-2)Man(a1-3)[Fuc(a1-2)Gal(b1-4)GlcNAc(b1-2)Man(a1-6)]Man(b1-4)GlcNAc(b1-4)GlcNAc
# Outline: as §1
# [21] = molecular target: Fuc(a1-2)Gal(b1-4)GlcNAc(b1-2)Man(a1-3)[Fuc(a1-2)Gal(b1-4)GlcNAc(b1-2)Man(a1-6)]Man(b1-4)GlcNAc(b1-4)[Fuc(a1-6)]GlcNAc
# Outline: as §1
# [22] = molecular target: Fuc(a1-2)Gal(b1-4)GlcNAc(b1-2)[Fuc(a1-2)Gal(b1-4)GlcNAc(b1-4)]Man(a1-3)[Fuc(a1-2)Gal(b1-4)GlcNAc(b1-2)Man(a1-6)]Man(b1-4)GlcNAc(b1-4)GlcNAc
# Outline: as §1
# [23] = molecular target: Fuc(a1-2)Gal(b1-4)GlcNAc(b1-3)Gal(b1-4)GlcNAc
# Outline: as §1
# [24] = molecular target: Fuc(a1-2)Gal(b1-4)GlcNAc(b1-3)Gal(b1-4)GlcNAc(b1-2)Man(a1-3)[Fuc(a1-2)Gal(b1-4)GlcNAc(b1-3)Gal(b1-4)GlcNAc(b1-2)Man(a1-6)]Man(b1-4)GlcNAc(b1-4)GlcNAc
# Outline: as §1
# [25] = molecular target: Fuc(a1-2)Gal(b1-4)GlcNAc(b1-3)Gal(b1-4)GlcNAc(b1-3)Gal(b1-4)GlcNAc
# Outline: as §1
# [26] = molecular target: Fuc(a1-2)Gal(b1-4)GlcNAc(b1-3)GalNAc
# Outline: as §1
# [27] = molecular target: Fuc(a1-2)Gal(b1-4)GlcNAc(b1-3)[Fuc(a1-2)Gal(b1-4)GlcNAc(b1-6)]GalNAc
# Outline: as §1
# [28] = molecular target: Fuc(a1-2)Gal(b1-4)GlcNAc(b1-3)[Fuc(a1-3)[Gal(b1-4)]GlcNAc(b1-6)]Gal(b1-4)Glc
# Outline: as §1
# [29] = molecular target: Fuc(a1-2)Gal(b1-4)GlcNAc(b1-6)GalNAc
# Outline: as §1
# [30] = molecular target: Fuc(a1-2)Gal(b1-4)GlcNAc6S
# Outline: as §1
# [31] = molecular target: Fuc(a1-2)Gal(b1-4)[Fuc(a1-3)]GlcNAc
# Outline: as §1
# [32] = molecular target: Fuc(a1-2)Gal(b1-4)[Fuc(a1-3)]GlcNAc(b1-2)Man(a1-3)[Fuc(a1-2)Gal(b1-4)[Fuc(a1-3)]GlcNAc(b1-2)Man(a1-6)]Man(b1-4)GlcNAc(b1-4)[Fuc(a1-6)]GlcNAc
# Outline: as §1
# [33] = molecular target: Fuc(a1-2)Gal(b1-4)[Fuc(a1-3)]GlcNAc(b1-2)[Fuc(a1-2)Gal(b1-4)[Fuc(a1-3)]GlcNAc(b1-4)]Man(a1-3)[Fuc(a1-2)Gal(b1-4)[Fuc(a1-3)]GlcNAc(b1-2)Man(a1-6)]Man(b1-4)GlcNAc(b1-4)GlcNAc
# Outline: as §1
# [34] = molecular target: Fuc(a1-2)Gal(b1-4)[Fuc(a1-3)]GlcNAc(b1-3)Gal(b1-4)[Fuc(a1-3)]GlcNAc
# Outline: as §1
# [35] = molecular target: Fuc(a1-2)Gal(b1-4)[Fuc(a1-3)]GlcNAc(b1-3)Gal(b1-4)[Fuc(a1-3)]GlcNAc(b1-3)Gal(b1-4)[Fuc(a1-3)]GlcNAc
# Outline: as §1
# [36] = molecular target: Fuc(a1-2)Gal(b1-4)[Fuc(a1-3)]GlcNAc(b1-3)GalNAc
# Outline: as §1
# [37] = molecular target: Fuc(a1-2)Gal(b1-4)[Fuc(a1-3)]GlcNAc(b1-3)[Neu5Ac(a2-6)Gal(b1-4)GlcNAc(b1-6)]Gal(b1-4)Glc
# Outline: as §1
# [38] = molecular target: Fuc(a1-2)Gal3S(b1-4)GlcNAc
# Outline: as §1
# [39] = molecular target: Fuc(a1-2)Gal6S(b1-3)GlcNAc
# Outline: as §1
binder,measurement,setting,value
PX9961M-bvu-482-23-482 (Bacteroides vulgatus) (protein) WLDLAPSTQVDTETSINVLSDIEFTLNGIYSTMQSSDAYSGRLVYYGDVTGDDMQAVSSTKRTGNYYRFNFTKDNGPSSHWSYLYSIIQNCNLILMNVDKLSIDEDETEYKNDLKGQALAIRGMALFDLTRIFGYPYLKDNGASLGVPIVKELSTIDSKPARNTVAECYTEIISDLKNSTELLSGDFNKGKVNRWAAMTLLSRVYLYKGEYNEALTMAENAIKGAEKEGYALWTNEEYPTAWGNDASASNPGEILFEIVNLTTDSPGKESMGYLNSYNGYDDMCITCSFYQLLKKDPKDVRLKILSFDKKYYAYVNKYQPQQGENITDANIPLIRLSEAYLNAAEAAVQTGDNAKAVKYLNSIVQRANPENSVEGKTLTLENVLDERRKELVAEGHRMYDVIRNGMTVKRIDVKDSDINKTKHNTAYMEYDWNFHKILLPIPKKEMDANPNMKQNPGYVD,glycan array binding signal (z-score),Fuc(a1-2)Gal,-0.065
same,glycan array binding signal (z-score),Fuc(a1-2)Gal(b1-3)GalNAc,0.581
same,glycan array binding signal (z-score),[1],-0.773
same,glycan array binding signal (z-score),[2],-0.555
same,glycan array binding signal (z-score),[3],-0.507
same,glycan array binding signal (z-score),[4],-0.18
same,glycan array binding signal (z-score),[5],0.459
same,glycan array binding signal (z-score),Fuc(a1-2)Gal(b1-3)GlcNAc,-0.671
same,glycan array binding signal (z-score),[6],0.321
same,glycan array binding signal (z-score),[7],-0.012
same,glycan array binding signal (z-score),[8],-0.284
same,glycan array binding signal (z-score),[9],-1.09
same,glycan array binding signal (z-score),[10],-0.153
same,glycan array binding signal (z-score),[11],0.767
same,glycan array binding signal (z-score),[12],0.123
same,glycan array binding signal (z-score),[13],0.432
same,glycan array binding signal (z-score),[14],-0.893
same,glycan array binding signal (z-score),[15],-0.346
same,glycan array binding signal (z-score),[16],-0.077
same,glycan array binding signal (z-score),[17],-0.678
same,glycan array binding signal (z-score),[18],0.057
same,glycan array binding signal (z-score),Fuc(a1-2)Gal(b1-4)Glc,-0.937
same,glycan array binding signal (z-score),Fuc(a1-2)Gal(b1-4)Glc6S,0.624
same,glycan array binding signal (z-score),Fuc(a1-2)Gal(b1-4)GlcNAc,-0.538
same,glycan array binding signal (z-score),[19],-0.349
same,glycan array binding signal (z-score),[20],0.28
same,glycan array binding signal (z-score),[21],0.59
same,glycan array binding signal (z-score),[22],1.74
same,glycan array binding signal (z-score),[23],-1.33
same,glycan array binding signal (z-score),[24],1.21
same,glycan array binding signal (z-score),[25],0.058
same,glycan array binding signal (z-score),[26],0.732
same,glycan array binding signal (z-score),[27],0.468
same,glycan array binding signal (z-score),[28],-0.231
same,glycan array binding signal (z-score),[29],0.551
same,glycan array binding signal (z-score),[30],-0.043
same,glycan array binding signal (z-score),[31],-0.301
same,glycan array binding signal (z-score),[32],0.488
same,glycan array binding signal (z-score),[33],-0.025
same,glycan array binding signal (z-score),[34],-0.577
same,glycan array binding signal (z-score),[35],0.316
same,glycan array binding signal (z-score),[36],-0.235
same,glycan array binding signal (z-score),[37],-0.584
same,glycan array binding signal (z-score),[38],-0.886
same,glycan array binding signal (z-score),[39],-0.427

# For convenience, some entries already given:
binder,measurement,setting,value
PX9961M-bvu-482-23-482 (Bacteroides vulgatus) (protein) WLDLAPSTQVDTETSINVLSDIEFTLNGIYSTMQSSDAYSGRLVYYGDVTGDDMQAVSSTKRTGNYYRFNFTKDNGPSSHWSYLYSIIQNCNLILMNVDKLSIDEDETEYKNDLKGQALAIRGMALFDLTRIFGYPYLKDNGASLGVPIVKELSTIDSKPARNTVAECYTEIISDLKNSTELLSGDFNKGKVNRWAAMTLLSRVYLYKGEYNEALTMAENAIKGAEKEGYALWTNEEYPTAWGNDASASNPGEILFEIVNLTTDSPGKESMGYLNSYNGYDDMCITCSFYQLLKKDPKDVRLKILSFDKKYYAYVNKYQPQQGENITDANIPLIRLSEAYLNAAEAAVQTGDNAKAVKYLNSIVQRANPENSVEGKTLTLENVLDERRKELVAEGHRMYDVIRNGMTVKRIDVKDSDINKTKHNTAYMEYDWNFHKILLPIPKKEMDANPNMKQNPGYVD,glycan array binding signal (z-score),Fuc(a1-2)Gal(b1-4)Glc6S,0.624
same,glycan array binding signal (z-score),Fuc(a1-2)Gal(b1-4)GlcNAc,-0.538
same,glycan array binding signal (z-score),[19],-0.349
